The list shows a part of the results. The data scatter; read single values as rough.
Key:
[1] = compound: ClCC(=O)N[C@@H]1CCCc2ccccc12; experiment: log2 mean competition ratio of IA-DTB cysteine labelling (DMSO/compound) (log2 ratio); higher = stronger cysteine engagement by compound; conditions: treatment time: 4 h, cell line lysate: HEK293T
Method: (§1)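 IA-DTB competitive cysteine chemoproteomics in HEK293T RIPA lysate. Lysates were treated with compound 29 or 30 at 50 or 200 µM for 4 h, then IA-DTB (500 µM, 1 h), trypsin-digested, NeutrAvidin-enriched and analysed by diaPASEF. Competition ratio = intensity DMSO / intensity compound (n=4 treated, n=64 DMSO); binding: mean log2 CR ≥ 1 and p ≤ 0.05 plus QC filters. Target is the cysteine site.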

Protein sequences, listed by entry. Tags and fused reporters are not part of them. Lines headed by an entry give the natural chain unless they say otherwise; changes in a name come on top. Residues count along the entry.
UniProt Q14651: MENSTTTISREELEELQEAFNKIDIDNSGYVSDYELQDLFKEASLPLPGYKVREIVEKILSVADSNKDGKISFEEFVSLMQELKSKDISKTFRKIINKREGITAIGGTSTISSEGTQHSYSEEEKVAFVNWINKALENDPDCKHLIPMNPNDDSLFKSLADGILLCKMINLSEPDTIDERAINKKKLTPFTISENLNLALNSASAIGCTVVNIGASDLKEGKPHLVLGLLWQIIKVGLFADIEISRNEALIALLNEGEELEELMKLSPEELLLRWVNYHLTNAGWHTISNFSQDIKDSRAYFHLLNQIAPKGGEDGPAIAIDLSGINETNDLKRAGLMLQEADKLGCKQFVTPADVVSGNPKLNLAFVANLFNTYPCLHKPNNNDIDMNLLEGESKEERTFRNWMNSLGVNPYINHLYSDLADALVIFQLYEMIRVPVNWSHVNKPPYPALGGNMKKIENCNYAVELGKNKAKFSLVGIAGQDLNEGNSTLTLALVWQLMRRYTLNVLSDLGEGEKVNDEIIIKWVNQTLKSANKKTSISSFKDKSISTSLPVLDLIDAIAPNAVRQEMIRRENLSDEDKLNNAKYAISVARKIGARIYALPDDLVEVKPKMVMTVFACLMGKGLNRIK
UniProt Q96BK5: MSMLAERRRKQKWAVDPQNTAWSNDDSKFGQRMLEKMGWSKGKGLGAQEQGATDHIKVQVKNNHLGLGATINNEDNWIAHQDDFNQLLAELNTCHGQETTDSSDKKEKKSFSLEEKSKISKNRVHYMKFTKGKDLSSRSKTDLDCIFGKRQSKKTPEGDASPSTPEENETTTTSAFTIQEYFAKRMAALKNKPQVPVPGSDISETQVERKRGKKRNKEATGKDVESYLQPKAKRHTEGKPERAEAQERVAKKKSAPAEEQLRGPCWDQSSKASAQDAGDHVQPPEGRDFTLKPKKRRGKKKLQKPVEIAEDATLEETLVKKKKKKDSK
UniProt Q92643: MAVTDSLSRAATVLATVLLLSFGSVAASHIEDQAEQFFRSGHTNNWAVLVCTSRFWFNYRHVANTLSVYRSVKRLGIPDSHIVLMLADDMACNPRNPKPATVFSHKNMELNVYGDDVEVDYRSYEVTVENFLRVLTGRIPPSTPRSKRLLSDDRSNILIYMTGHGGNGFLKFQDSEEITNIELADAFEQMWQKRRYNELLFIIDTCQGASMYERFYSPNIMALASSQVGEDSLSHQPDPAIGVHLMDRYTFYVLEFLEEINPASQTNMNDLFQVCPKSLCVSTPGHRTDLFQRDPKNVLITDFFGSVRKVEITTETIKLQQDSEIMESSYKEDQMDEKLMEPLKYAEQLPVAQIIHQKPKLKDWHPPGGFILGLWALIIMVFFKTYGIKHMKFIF
UniProt O95602: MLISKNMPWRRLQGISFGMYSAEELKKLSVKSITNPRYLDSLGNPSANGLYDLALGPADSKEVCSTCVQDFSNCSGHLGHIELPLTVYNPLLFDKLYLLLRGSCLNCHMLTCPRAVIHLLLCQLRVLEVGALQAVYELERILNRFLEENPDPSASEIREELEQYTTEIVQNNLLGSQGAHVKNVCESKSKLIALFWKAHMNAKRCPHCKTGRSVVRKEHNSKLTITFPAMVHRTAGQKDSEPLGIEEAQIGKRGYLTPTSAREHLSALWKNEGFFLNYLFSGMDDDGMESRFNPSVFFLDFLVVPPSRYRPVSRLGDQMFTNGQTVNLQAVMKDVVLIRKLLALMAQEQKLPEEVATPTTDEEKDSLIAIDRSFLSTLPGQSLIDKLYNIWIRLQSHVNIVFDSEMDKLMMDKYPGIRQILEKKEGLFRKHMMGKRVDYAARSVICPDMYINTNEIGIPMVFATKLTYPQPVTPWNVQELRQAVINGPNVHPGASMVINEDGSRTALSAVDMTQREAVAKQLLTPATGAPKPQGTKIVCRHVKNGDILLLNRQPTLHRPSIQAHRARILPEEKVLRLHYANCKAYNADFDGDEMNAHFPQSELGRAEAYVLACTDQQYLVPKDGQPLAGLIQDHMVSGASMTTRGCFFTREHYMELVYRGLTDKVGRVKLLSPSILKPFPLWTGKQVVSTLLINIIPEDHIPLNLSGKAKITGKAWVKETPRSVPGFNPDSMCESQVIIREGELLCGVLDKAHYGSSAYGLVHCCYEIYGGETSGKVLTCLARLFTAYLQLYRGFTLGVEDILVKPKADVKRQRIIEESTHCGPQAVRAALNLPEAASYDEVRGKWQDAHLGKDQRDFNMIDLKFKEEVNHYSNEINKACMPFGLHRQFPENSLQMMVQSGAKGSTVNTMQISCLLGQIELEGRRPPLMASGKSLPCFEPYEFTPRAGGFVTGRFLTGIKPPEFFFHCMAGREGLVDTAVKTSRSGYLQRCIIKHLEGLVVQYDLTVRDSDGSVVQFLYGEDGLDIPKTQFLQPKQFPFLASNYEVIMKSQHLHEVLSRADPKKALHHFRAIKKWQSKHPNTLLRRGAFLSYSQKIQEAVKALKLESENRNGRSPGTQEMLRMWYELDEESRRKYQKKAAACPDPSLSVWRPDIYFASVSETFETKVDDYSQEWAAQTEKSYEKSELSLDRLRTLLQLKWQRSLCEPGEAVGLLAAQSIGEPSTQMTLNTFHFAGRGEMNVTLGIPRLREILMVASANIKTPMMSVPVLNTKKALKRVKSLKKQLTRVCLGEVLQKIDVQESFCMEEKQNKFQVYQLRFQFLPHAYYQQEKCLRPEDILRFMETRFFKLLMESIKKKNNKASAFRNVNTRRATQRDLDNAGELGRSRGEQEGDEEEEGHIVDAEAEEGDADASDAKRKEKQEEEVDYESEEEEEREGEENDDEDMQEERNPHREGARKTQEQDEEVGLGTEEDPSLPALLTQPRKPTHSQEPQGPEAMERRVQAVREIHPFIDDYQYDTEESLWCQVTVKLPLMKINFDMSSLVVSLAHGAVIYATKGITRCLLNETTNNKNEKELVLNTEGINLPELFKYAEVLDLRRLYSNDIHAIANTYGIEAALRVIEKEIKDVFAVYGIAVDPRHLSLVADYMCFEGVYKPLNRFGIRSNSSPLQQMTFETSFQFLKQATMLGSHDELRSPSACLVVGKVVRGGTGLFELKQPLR
UniProt Q92576, 1757-1778: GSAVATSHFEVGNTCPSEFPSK
UniProt Q9H8W4, 140-160: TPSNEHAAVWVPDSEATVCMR
UniProt Q9Y2I7: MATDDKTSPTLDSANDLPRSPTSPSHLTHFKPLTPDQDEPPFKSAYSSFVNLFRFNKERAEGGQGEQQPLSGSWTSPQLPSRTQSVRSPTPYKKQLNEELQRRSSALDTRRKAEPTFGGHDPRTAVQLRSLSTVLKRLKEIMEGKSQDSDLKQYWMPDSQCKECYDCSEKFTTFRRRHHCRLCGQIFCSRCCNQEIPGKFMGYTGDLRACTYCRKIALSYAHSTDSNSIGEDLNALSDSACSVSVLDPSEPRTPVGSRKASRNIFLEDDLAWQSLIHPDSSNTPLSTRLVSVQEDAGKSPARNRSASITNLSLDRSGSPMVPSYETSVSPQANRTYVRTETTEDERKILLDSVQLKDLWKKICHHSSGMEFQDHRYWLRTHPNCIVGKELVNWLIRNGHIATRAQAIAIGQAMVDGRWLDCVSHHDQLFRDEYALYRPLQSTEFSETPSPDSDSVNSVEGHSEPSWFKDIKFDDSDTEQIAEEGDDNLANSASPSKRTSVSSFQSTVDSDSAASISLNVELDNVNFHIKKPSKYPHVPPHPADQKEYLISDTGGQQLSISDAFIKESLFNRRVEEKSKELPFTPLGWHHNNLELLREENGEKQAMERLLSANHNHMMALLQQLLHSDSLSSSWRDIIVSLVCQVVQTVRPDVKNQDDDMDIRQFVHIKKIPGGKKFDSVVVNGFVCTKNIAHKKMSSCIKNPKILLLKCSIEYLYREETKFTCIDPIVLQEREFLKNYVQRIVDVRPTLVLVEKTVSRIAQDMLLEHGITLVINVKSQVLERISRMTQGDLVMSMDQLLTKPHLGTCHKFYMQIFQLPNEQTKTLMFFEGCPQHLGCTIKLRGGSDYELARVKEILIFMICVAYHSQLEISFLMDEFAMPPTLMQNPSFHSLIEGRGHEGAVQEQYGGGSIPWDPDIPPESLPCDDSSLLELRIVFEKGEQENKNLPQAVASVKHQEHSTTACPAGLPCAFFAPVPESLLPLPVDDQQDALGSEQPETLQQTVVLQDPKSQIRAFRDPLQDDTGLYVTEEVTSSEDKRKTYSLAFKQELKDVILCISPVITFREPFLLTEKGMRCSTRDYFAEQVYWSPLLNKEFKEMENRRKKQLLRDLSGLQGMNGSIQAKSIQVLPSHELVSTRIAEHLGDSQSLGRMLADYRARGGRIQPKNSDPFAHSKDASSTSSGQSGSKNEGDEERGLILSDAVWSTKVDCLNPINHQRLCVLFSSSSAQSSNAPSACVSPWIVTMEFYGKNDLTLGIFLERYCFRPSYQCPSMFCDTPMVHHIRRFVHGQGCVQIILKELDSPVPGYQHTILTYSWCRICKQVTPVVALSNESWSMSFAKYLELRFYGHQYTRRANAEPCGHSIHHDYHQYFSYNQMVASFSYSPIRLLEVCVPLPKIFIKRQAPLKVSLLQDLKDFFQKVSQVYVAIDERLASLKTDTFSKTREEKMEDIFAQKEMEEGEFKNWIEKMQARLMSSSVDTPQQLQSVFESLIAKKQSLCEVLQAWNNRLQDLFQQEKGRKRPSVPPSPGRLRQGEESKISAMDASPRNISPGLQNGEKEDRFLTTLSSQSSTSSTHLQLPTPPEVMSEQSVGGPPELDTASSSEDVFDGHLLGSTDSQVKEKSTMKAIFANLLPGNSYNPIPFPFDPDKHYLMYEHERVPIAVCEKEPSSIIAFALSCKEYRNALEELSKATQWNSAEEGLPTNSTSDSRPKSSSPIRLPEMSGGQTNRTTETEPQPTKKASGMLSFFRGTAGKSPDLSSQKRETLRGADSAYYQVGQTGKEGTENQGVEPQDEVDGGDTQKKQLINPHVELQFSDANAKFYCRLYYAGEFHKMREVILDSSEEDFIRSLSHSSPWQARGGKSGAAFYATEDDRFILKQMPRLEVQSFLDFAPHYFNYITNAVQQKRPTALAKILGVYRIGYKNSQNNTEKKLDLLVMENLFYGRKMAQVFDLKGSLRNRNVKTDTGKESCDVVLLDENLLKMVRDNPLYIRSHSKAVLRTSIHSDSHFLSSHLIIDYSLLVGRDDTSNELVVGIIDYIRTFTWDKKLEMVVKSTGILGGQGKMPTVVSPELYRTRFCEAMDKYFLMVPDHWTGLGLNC
UniProt Q5JRX3: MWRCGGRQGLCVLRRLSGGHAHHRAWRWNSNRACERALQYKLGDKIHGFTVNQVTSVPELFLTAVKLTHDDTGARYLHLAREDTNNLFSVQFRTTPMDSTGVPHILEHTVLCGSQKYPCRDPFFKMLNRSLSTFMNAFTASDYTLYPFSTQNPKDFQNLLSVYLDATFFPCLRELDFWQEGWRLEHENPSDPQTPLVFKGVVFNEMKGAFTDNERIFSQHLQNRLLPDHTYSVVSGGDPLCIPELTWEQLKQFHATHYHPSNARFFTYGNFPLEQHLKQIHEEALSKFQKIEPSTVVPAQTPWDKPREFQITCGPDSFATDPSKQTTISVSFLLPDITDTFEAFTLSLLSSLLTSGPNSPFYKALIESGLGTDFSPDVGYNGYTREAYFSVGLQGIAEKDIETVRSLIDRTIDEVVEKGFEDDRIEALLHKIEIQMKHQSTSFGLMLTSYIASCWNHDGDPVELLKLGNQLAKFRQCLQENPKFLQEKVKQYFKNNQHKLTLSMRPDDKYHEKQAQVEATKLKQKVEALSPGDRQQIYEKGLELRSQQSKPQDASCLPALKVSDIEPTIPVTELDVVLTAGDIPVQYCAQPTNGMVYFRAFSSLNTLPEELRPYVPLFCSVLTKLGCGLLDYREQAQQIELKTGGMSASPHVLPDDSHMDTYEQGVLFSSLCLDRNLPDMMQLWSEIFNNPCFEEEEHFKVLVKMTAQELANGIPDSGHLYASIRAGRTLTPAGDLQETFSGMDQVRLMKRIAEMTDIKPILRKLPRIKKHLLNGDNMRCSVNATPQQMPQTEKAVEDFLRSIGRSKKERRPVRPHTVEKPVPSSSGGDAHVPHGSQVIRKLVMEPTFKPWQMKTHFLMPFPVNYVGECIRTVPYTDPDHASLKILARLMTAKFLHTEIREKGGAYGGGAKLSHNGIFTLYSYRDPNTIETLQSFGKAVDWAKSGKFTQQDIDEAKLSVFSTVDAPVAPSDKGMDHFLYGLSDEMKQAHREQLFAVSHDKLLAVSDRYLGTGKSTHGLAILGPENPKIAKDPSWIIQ
UniProt P78337, whole entry, looked up: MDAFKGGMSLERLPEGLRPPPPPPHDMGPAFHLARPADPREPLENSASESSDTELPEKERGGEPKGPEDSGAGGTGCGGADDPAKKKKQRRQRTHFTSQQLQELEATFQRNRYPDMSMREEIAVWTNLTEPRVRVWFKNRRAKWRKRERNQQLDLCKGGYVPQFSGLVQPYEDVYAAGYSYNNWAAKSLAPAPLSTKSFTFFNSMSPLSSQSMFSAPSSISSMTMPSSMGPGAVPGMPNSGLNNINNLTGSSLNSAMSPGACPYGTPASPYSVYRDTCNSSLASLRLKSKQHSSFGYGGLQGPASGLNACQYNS

[2] = compound: ClCC(=O)N[C@H]1CCCc2ccccc12; experiment: as above; conditions: treatment time: 4 h, cell line lysate: HEK293T
Method: as §1

Target	log2 mean competition ratio ([1]; 50 µM)	log2 mean competition ratio ([1]; 200 µM)	log2 mean competition ratio ([2]; 50 µM)	log2 mean competition ratio ([2]; 200 µM)
PLAA C631 (UniProt Q9Y263)	0.00481	-0.107	-0.0999	-0.204
PLEKHG2 C648 (UniProt Q9H7P9)	-0.17	-0.138	-0.298	-0.0792
PHF8 C684 (UniProt Q9UPP1)	0.073	0.387	-0.0849	0.0891
PKM C474	-0.0158	-0.258	0.213	-0.0868
PLS1 C142 (UniProt Q14651)	-0.272	-0.355	-0.36	0.0174
PIK3C2A C541 (UniProt O00443)	0.0426	-0.0711	-0.156	-0.152
PHKA1 C656 (UniProt P46020)	-0.0191	0.0185	-0.0716	0.0683
PINX1 C145 (UniProt Q96BK5)	-0.0532	0.488	0.184	0.499
POLA1 C141 (UniProt P09884)	0.504	-0.0854	1.1	-0.0637
PI4KA C1131 (UniProt P42356)	0.194	0.147	0.551	-0.345
PIGK C280 (UniProt Q92643)	0.181	-0.0782	0.243	-0.127
POLR1A C613 (UniProt O95602)	0.0367	-0.0864	0.172	-0.19
PHF3 C1771 (UniProt Q92576)	-0.0786	0.529	-0.0174	0.0451
PMS2 C202 (UniProt P54278)	0.136	-0.192	-0.14	-0.0326
PHF5A C11 (UniProt Q7RTV0)	0.3	-0.131	0.359	0.035
PLEKHF2 C158 (UniProt Q9H8W4)	-0.0499	0.0173	-0.277	-0.0738
PIKFYVE C1970 (UniProt Q9Y2I7)	-0.434	0.215	-0.671	0.276
PHRF1 C1123 (UniProt Q9P1Y6)	-0.053	0.2	-0.391	-0.0129
PITRM1 C780 (UniProt Q5JRX3)	-0.0415	0.0125	0.39	0.144
PIGQ C247 (UniProt Q9BRB3)	-0.205	0.0428	-0.225	-0.128
PITX1 C156 (UniProt P78337)	-0.11	-0.0088	0.325	0.154
PLBD2 C495 (UniProt Q8NHP8)	0.0739	-0.102	-0.71	-0.218

For convenience, some entries already given:
Target	log2 mean competition ratio ([1]; 50 µM)	log2 mean competition ratio ([1]; 200 µM)	log2 mean competition ratio ([2]; 50 µM)	log2 mean competition ratio ([2]; 200 µM)
PHKA1 C656 (UniProt P46020)	-0.0191	0.0185	-0.0716	0.0683
PINX1 C145 (UniProt Q96BK5)	-0.0532	0.488	0.184	0.499
